Reference: article PMC4999498
No constants are given. Whether binding was seen depends on the method and setting. In cells and extracts the contact can be indirect. Some results given as binding are weak or reduced against the parent protein; the word gives no strength.

Chains of the proteins cited; added tags and fusions are not shown. Lines headed by an entry give the natural chain unless they say otherwise; changes in a name come on top.
UniProt P19973: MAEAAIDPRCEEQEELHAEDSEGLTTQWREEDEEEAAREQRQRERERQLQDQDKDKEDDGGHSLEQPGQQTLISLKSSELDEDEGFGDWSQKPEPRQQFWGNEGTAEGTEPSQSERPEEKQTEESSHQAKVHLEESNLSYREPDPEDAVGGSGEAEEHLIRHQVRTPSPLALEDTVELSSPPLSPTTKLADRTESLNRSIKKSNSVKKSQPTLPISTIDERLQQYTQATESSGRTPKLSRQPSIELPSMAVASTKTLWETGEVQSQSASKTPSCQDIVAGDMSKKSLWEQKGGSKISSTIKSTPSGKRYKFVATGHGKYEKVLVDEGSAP

What was measured:
[1] = target: Flag-EGFP-tagged S209A mouse Lsp1, expressed in 293T cells (mouse) (UniProt P19973); assay: co-IP; lysates of 293T cells ectopically expressing OGT and Flag-EGFP-tagged WT or S209A Lsp1; IP with anti-Flag, immunoblot for OGT; IP lysis buffer 50 mM Tris-Cl pH 8.0, 150 mM NaCl, 5 mM EDTA, 0.5% Triton X-100, 0.1% sodium deoxycholate, 4 °C overnight
[2] = target: Flag-EGFP-tagged wild-type mouse Lsp1 (lymphocyte-specific protein-1), expressed in 293T cells (mouse) (UniProt P19973); assay: as above

B1: mouse O-GlcNAc transferase (OGT), expressed in 293T cells (enzyme, UniProt Q8CGY8 1-1046)
chain: MASSVGNVADSTEPTKRMLSFQGLAELAHREYQAGDFEAAERHCMQLWRQEPDNTGVLLLLSSIHFQCRRLDRSAHFSTLAIKQNPLLAEAYSNLGNVYKERGQLQEAIEHYRHALRLKPDFIDGYINLAAALVAAGDMEGAVQAYVSALQYNPDLYCVRSDLGNLLKALGRLEEAKACYLKAIETQPNFAVAWSNLGCVFNAQGEIWLAIHHFEKAVTLDPNFLDAYINLGNVLKEARIFDRAVAAYLRALSLSPNHAVVHGNLACVYYEQGLIDLAIDTYRRAIELQPHFPDAYCNLANALKEKGSVAEAEDCYNTALRLCPTHADSLNNLANIKREQGNIEEAVRLYRKALEVFPEFAAAHSNLASVLQQQGKLQEALMHYKEAIRISPTFADAYSNMGNTLKEMQDVQGALQCYTRAIQINPAFADAHSNLASIHKDSGNIPEAIASYRTALKLKPDFPDAYCNLAHCLQIVCDWTDYDERMKKLVSIVAEQLEKNRLPSVHPHHSMLYPLSHGFRKAIAERHGNLCLDKINVLHKPPYEHPKDLKLSDGRLRVGYVSSDFGNHPTSHLMQSIPGMHNPDKFEVFCYALSPDDGTNFRVKVMAEANHFIDLSQIPCNGKAADRIHQDGIHILVNMNGYTKGARNELFALRPAPIQAMWLGYPGTSGALFMDYIITDQETSPAEVAEQYSEKLAYMPHTFFIGDHANMFPHLKKKAVIDFKSNGHIYDNRIVLNGIDLKAFLDSLPDVKIVKMKCPDGGDNPDSSNTALNMPVIPMNTIAEAVIEMINRGQIQITINGFSISNGLATTQINNKAATGEEVPRTIIVTTRSQYGLPEDAIVYCNFNQLYKIDPSTLQMWANILKRVPNSVLWLLRFPAVGEPNIQQYAQNMGLPQNRIIFSPVAPKEEHVRRGQLADVCLDTPLCNGHTTGMDVLWAGTPMVTMPGETLASRVAASQLTCLGCLELIAKSRQEYEDIAVKLGTDLEYLKKIRGKVWKQRISSPLFNTKQYTMELERLYLQMWEHYAAGNKPDHMIKPVEVTESA
[1]
  binding: binds
[2]
  binding: binds
